{
  "sequences": {"note": "Sequences of proteins named here, by UniProt entry; tags and fusion partners are left off.", "UniProt P58391": "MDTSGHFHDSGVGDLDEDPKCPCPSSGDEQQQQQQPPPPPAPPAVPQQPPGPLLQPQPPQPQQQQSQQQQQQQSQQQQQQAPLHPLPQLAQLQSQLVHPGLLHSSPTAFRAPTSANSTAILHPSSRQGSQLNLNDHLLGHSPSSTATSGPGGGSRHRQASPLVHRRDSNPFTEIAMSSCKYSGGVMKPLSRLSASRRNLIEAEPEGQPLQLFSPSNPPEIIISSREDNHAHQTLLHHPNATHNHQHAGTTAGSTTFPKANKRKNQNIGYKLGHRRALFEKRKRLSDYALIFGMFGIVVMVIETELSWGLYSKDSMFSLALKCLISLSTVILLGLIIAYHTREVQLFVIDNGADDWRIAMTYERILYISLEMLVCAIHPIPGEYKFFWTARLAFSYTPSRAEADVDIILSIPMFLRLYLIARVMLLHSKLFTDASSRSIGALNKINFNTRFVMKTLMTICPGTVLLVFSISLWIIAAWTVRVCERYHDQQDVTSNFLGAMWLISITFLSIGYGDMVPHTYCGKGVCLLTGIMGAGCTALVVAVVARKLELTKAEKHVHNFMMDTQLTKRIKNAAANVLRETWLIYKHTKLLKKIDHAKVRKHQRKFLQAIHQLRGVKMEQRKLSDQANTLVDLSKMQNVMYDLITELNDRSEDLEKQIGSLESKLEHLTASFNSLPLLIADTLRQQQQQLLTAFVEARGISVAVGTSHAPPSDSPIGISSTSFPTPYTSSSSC", "UniProt Q61290": "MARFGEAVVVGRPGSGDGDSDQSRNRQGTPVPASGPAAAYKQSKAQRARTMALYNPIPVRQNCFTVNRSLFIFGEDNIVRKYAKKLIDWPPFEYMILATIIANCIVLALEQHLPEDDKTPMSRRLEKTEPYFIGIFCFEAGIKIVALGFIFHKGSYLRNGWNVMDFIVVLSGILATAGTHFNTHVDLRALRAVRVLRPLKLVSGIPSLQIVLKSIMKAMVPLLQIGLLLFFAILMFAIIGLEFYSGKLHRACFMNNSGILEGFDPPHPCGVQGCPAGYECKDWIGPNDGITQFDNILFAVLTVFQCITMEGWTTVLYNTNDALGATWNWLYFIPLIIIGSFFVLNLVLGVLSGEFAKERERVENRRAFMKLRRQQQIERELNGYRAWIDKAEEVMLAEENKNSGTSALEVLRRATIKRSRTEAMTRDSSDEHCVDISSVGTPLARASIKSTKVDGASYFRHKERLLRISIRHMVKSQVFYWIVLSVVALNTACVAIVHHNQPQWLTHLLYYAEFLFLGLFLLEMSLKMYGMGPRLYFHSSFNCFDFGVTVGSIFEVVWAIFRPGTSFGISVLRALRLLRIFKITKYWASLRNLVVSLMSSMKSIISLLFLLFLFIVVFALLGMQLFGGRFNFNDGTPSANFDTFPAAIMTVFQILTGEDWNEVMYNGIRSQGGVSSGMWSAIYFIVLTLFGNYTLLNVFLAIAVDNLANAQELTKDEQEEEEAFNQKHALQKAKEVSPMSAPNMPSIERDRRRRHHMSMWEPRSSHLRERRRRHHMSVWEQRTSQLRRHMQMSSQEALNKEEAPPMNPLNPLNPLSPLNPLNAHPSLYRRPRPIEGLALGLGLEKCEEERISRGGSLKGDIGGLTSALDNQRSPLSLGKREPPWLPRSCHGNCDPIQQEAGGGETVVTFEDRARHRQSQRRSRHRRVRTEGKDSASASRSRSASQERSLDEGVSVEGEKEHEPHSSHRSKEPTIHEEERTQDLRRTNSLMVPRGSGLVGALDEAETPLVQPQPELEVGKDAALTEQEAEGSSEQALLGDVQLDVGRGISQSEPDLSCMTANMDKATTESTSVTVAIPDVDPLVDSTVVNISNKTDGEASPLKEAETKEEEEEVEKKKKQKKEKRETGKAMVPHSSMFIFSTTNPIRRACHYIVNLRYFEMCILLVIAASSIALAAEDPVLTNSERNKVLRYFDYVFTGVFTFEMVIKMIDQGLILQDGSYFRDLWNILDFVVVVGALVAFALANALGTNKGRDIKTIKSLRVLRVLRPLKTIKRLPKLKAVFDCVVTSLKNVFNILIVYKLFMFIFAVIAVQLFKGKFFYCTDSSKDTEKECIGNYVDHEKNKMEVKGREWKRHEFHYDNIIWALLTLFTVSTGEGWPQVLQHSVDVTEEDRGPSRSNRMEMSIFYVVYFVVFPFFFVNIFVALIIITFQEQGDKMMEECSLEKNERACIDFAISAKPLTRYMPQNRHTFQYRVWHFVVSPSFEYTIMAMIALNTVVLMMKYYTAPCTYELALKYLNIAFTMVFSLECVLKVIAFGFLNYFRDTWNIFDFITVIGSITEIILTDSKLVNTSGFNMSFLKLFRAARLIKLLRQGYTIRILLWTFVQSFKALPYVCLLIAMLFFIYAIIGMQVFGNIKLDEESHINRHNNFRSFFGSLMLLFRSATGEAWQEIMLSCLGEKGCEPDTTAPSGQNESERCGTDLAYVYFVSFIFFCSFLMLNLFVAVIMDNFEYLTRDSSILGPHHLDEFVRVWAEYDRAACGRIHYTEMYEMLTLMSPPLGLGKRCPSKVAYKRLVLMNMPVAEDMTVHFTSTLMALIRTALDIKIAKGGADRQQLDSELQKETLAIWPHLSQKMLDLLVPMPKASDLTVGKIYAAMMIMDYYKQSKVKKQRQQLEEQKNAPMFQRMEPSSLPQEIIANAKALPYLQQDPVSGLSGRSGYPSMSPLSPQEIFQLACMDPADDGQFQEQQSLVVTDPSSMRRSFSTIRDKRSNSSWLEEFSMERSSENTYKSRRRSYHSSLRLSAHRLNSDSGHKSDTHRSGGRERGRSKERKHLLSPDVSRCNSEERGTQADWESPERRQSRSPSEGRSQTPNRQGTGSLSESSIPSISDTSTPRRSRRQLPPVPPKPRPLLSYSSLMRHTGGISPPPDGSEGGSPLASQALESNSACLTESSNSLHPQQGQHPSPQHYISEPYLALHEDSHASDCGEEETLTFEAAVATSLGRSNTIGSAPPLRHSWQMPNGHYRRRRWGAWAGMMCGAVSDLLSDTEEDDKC", "UniProt Q61037": "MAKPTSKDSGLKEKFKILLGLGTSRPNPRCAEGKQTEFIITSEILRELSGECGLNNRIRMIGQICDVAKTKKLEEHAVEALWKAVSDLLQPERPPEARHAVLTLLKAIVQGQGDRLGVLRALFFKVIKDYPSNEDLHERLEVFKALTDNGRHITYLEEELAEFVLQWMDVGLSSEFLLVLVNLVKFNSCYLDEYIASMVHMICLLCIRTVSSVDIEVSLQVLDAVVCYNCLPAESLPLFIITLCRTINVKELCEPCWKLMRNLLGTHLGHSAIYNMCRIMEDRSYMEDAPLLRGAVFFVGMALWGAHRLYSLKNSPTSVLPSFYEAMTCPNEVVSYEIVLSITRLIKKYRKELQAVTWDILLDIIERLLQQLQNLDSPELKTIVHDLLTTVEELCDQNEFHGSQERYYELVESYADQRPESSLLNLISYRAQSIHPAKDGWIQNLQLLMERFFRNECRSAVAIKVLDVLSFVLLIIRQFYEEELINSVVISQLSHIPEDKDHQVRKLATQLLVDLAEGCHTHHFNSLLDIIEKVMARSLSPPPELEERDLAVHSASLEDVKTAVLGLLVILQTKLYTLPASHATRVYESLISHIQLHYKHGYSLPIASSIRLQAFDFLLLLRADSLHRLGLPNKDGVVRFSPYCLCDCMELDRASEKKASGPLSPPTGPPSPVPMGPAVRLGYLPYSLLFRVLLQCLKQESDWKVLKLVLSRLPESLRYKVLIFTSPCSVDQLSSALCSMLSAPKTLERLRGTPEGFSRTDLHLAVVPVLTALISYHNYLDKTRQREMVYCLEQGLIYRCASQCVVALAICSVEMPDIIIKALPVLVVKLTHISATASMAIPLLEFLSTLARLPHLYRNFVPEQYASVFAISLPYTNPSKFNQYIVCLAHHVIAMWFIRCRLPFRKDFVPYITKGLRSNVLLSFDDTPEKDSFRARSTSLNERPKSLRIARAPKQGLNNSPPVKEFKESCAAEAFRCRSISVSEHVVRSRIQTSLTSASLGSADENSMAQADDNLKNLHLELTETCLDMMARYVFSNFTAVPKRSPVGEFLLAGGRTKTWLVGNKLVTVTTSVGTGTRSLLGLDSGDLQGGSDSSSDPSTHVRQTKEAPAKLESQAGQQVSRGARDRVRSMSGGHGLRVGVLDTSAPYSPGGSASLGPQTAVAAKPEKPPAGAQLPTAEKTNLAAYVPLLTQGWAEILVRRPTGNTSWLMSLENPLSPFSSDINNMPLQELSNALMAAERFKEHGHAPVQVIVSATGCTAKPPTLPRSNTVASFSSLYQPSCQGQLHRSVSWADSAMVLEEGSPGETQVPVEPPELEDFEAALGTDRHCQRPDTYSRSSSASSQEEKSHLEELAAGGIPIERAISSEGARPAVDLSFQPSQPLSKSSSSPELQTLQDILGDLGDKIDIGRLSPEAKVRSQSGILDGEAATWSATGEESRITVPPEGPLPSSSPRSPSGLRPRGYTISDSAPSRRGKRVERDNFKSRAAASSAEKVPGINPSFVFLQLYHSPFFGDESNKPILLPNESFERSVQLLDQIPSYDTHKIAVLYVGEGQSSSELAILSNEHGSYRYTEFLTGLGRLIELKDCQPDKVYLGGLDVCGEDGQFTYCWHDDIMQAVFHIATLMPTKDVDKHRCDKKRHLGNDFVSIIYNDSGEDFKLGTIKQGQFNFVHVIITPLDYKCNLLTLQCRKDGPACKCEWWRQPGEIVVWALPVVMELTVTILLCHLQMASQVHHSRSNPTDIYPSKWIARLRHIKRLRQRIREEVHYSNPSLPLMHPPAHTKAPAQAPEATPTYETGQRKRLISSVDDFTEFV"},
  "source": "paper PMC11172389",
  "molecules": {"B1": {"name": "sclerosis tuberous complex protein Tsc1 (protein, UniProt Q9EP53 1-1161)", "chain": "MAQLANIGELLSMLDSSTLGVRDDVTAIFKESLNSERGPMLVNTLVDYYLETNSQPVLHILTTLQEPHDKHLLDKINEYVGKAATRLSILSLLGHVVRLQPSWKHKLSQAPLLPSLLKCLKMDTDVVVLTTGVLVLITMLPMIPQSGKQHLLDFFDIFGRLSSWCLKKPGHVTEVYLVHLHASVYALFHRLYGMYPCNFVSFLRSHYSMKENVETFEEVVKPMMEHVRIHPELVTGSKDHELDPRRWKTLETHDVVIECAKISLDPTEASYEDGYSVSHQLSACFPYRSADVTTSPYVDTQNSYGGSTSTPSSSSRLMLFSPPGQLPQSLSSPSTRLLPEPLQASLWSPSAVCGMTTPPTSPGNVPADLSHPYSKAFGTTAGGKGTPSGTPATSPPPAPPCPQDDCVHGSAAQASATAPRKEERADSSRPYLHRQSNDRGLEDPPGSKGSVTLRNLPDFLGDLASEEDSIEKDKEEAAISKELSEITTAEADPVVPRGGFDSPFYRDSLSGSQRKTHSAASGTQGSSVNPEPLHSSLDKHGPDTPKQAFTPIDPPSGSADVSPAGDRDRQTSLETSILTPSPCKIPPQRGVSFGSGQLPPYDHLFEVALPKTACHFVSKKTEELLKKVKGNPEEDCVPSTSPMEVLDRLIEQGAGAHSKELSRLSLPSKSVDWTHFGGSPPSDELRTLRDQLLLLHNQLLYERFKRQQHALRNRRLLRKVIRAAALEEHNAAMKDQLKLQEKDIQMWKVSLQKEQARYSQLQEQRDTMVTQLHSQIRQLQHDREEFYNQSQELQTKLEDCRNMIAELRVELKKANNKVCHTELLLSQVSQKLSNSESVQQQMEFLNRQLLVLGEVNELYLEQLQSKHPDTTKEVEMMKTAYRKELEKNRSHLLQQNQRLDASQRRVLELESLLAKKDHLLLEQKKYLEDVKSQASGQLLAAESRYEAQRKITRVLELEILDLYGRLEKDGRLRKLEEDRAEAAEAAEERLDCCSDGCTDSLVGHNEEASGHNGETRTSRPGGTRASCGGRVTGGSSSSSSELSTPEKPPSQRFSSRWEPALGEPSSSIPTTVGSLPSSKSFLGMKARELFRNKSESQCDEDSVTMSSSSLSETLKTELGKDSGTENKTSLSLDAPHPSSPNSDNVGQLHIMDYNETHPEHS"}, "B2": {"name": "sclerosis tuberous complex protein Tbc1d7 (protein, UniProt Q9D0K0 1-293)", "chain": "MTDDSQRNFRSVYYEKVGFRGVEEKKSLEILLKDDRLDIEKLCTFSQRFPLPSMYRALVWKALLGILPPHHDTHSQVMAYRKDQYHDILHALTVVRFISDATPQAEVYLRMYQLESGKLPRSPSFPLEPEDEVFLAIAKAMEEMVEDSVDCYWISRCFVKQLNNKYRDALPQLPKAFEQYLNLEDSRLLSHLKTCSAVSKLPYDLWFQRCFAGCLPESSLQRVWDKVVSGSCKILVFVAVEILLTFKIKVMALNSAEKITKFLENIPQDSSDAIVSKAIDLWHKHCGTPVHSA"}},
  "target": "SK3 calcium-activated small-conductance potassium channel (mouse (endogenous in midbrain)) (UniProt P58391)",
  "experiment": "affinity purification with mass spectrometry; mouse midbrain plasma-membrane-enriched fraction solubilised in CL47a; antibody-coated magnetic beads (protein A Dynabeads for Cav1.3), 2 h at 4 °C; LC-MS/MS, iBAQ, Class A/B against 11 control IPs from knock-out mice",
  "note": "Results are given in words; binding and its absence hold for the method and conditions named. Binding seen in cells or lysates may run through a third protein. These calls come from enrichment with a bait or labelling near it, and not all partners need be listed.",
  "data": [
    {"molecule": "α1 subunit of R-type voltage-dependent calcium channel Cav2.3 (from UniProt Q61290 1-2272)", "values": [
      {"measurement": "binding", "result": "binds"}
    ]},
    {"molecule": "SK2 channel subunit (from UniProt P58390 1-574)", "values": [
      {"measurement": "binding", "result": "binds"}
    ]},
    {"molecule": "sclerosis tuberous complex protein Tsc2 (from UniProt Q61037 1-1814)", "values": [
      {"measurement": "binding", "result": "binds"}
    ]},
    {"molecule": "B1", "values": [
      {"measurement": "binding", "result": "binds"}
    ]},
    {"molecule": "B2", "values": [
      {"measurement": "binding", "result": "binds"}
    ]}
  ]
}
